This is an account of results in US7399847 (GENERAL HOSPITAL, dated 2008).

The test deals with T1, E-selectin Ig chimera (human) (UniProt P16581).
T1 sequence (looked up): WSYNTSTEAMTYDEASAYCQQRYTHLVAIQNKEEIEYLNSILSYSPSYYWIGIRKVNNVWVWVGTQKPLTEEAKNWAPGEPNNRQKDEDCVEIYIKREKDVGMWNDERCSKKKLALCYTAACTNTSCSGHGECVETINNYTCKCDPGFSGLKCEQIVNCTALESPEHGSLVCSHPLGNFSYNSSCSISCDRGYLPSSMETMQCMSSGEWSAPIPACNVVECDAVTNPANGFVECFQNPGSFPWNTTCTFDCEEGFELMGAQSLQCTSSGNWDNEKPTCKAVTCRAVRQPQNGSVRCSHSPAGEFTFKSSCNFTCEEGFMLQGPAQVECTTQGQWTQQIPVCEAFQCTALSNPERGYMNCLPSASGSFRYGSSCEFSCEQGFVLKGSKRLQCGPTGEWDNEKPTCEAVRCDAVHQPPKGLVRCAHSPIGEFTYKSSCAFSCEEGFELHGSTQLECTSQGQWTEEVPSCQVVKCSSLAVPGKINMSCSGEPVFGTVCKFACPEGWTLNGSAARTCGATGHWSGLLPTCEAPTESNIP
Briefly: adhesion of 51Cr-labelled transfected COS cells to immobilized E-selectin Ig.

No constants are given. Whether binding was seen depends on the method and setting. Some binding calls cover weakened binding; strength is not graded here.

B1: PSGL-1 residues 38-57 with tyrosines converted to phenylalanine, on the truncated PSGL-1 lacking the apical domain (ligand, not shown: small tags and cut ends)
chain: RDRRQATEFEFLDFDFLPETAMEIQTTQPAATEAQTTQPVPTEAQTTPLAATEAQTTRLTATEAQTTPLAATEAQTTPPAATEAQTTQPTGLEAQTTAPAAMEAQTTAPAAMEAQTTPPAAMEAQTTQTTAMEAQTTAPEATEAQTTQPTATEAQTTPLAAMEALSTEPSATEALSMEPTTKRGLFIPFSVSSVTHKGIPMAASNLSVNYPVGAPDHISVKQCLLAILILALVATIFFVCTVVLAVRLSRKGHMYPVRNYSPTEMVCISSLLPDGGEGPSATANGGLSKAKSPGLTPEPREDREGDDLTLHSFLP
As for B1, the binding result is given as “binds”.
